The results in this text go back to PMC11046865.

Amino acid sequences for entries named in this document (tags omitted). A change or cut given only in a name is not applied to a line headed by its entry.
UniProt Q9NQB0: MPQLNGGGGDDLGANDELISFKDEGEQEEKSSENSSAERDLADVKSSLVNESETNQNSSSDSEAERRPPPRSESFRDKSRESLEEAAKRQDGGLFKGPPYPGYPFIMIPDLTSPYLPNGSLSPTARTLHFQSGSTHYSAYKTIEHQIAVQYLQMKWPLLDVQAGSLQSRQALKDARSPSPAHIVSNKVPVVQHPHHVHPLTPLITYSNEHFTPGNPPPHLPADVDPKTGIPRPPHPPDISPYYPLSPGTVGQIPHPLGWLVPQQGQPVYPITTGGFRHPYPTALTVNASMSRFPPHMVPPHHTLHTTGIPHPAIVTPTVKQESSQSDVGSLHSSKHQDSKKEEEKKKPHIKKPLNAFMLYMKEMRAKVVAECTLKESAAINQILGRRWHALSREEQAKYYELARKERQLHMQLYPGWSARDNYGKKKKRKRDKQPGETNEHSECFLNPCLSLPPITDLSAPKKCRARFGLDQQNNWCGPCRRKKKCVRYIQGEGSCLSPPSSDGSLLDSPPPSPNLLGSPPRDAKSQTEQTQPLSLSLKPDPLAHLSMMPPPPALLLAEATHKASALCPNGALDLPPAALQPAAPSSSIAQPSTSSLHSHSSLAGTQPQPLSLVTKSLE

Assay [1] has as its target TCF7L2 (endogenous, HCT116) (human (endogenous in HCT116)) (UniProt Q9NQB0). The assay is described as follows: co-IP; endogenous proteins in HCT116 cells; β-Cat and TCF7L2 IPs as positive controls; western blotting. In general terms: Immunoblotting shows a protein as a band on a membrane.
In assay [2] the target is HA-tagged TCF7L2 (full length). The assay is described as follows: co-IP; TCF7L2 and PIASy-myc co-transfected in HEK293FT with empty vector or PAX1 (HA-PAX1 0, 1, 2 μg; or flag-tagged PAX1 WT or mutants); IP of TCF7L2 with M2 beads (flag-TCF7L2) or anti-HA antibody (HA-TCF7L2); PIASy detected with anti-myc.
The next assay addresses flag-tagged TCF7L2. The description is as above.
Assay [3] has as its target HA-tagged TCF7L2 (full length). The assay is described as follows: co-IP; expression plasmids transfected alone or together into HEK293FT cells; lysis in 20 mM Tris pH 7.5, 1 mM EDTA, 1 mM EGTA, 150 mM NaCl, 1% Triton X-100; M2 (anti-flag) beads or antibody-bound dynabeads overnight at 4 °C; western blotting.

No constants are given. Whether binding was seen depends on the method and setting. Binding seen in cells or lysates may run through a third protein. Binding calls can cover weak binding; strength is not graded here. For some of these results: Tags and fused reporters may be left off the sequences shown.

“PAX1 (endogenous, HCT116) (from UniProt P15863-1 1-534)”: in assay [1], the binding entry was “binds”.

B1: Myc-tagged PIASy (enzyme, UniProt Q8N2W9 1-510)
chain: MAAELVEAKNMVMSFRVSDLQMLLGFVGRSKSGLKHELVTRALQLVQFDCSPELFKKIKELYETRYAKKNSEPAPQPHRPLDPLTMHSTYDRAGAVPRTPLAGPNIDYPVLYGKYLNGLGRLPAKTLKPEVRLVKLPFFNMLDELLKPTELVPQNNEKLQESPCIFALTPRQVELIRNSRELQPGVKAVQVVLRICYSDTSCPQEDQYPPNIAVKVNHSYCSVPGYYPSNKPGVEPKRPCRPINLTHLMYLSSATNRITVTWGNYGKSYSVALYLVRQLTSSELLQRLKTIGVKHPELCKALVKEKLRLDPDSEIATTGVRVSLICPLVKMRLSVPCRAETCAHLQCFDAVFYLQMNEKKPTWMCPVCDKPAPYDQLIIDGLLSKILSECEDADEIEYLVDGSWCPIRAEKERSCSPQGAILVLGPSDANGLLPAPSVNGSGALGSTGGGGPVGSMENGKPGADVVDLTLDSSSSSEDEEEEEEEEEDEDEEGPRPKRRCPFQKGLVPAC
As for B1, the binding entry (in assay [2]; with flag-tagged TCF7L2; in assay [3]) was “binds” in each case.
